± gives the standard deviation of the averaged measurements. The list shows a part of the results, in another mix than the full data. Most values lie at the level of the controls, where differences are scatter.
Compound: Nc1ncnc2c1ncn2[C@@H]1O[C@H](COP(=O)(O)OP(=O)(O)NP(=O)(O)O)[C@@H](O)[C@H]1O [adenylyl imidodiphosphate]
Experiment: NP40-soluble protein abundance relative to vehicle (solubility fold change) (ratio); higher = more soluble protein in presence of AMP-PNP
Procedure, shortened: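 Data come from three independent experiments in which Dounce-homogenised Jurkat crude lysate was treated at eight concentrations from 0.1 to 10 mM. Treatment ran 10 min at room temperature and then 3 min at 37 °C, after which 0.8% NP40 and benzonase were added for 60 min at 4 °C before ultracentrifugation. The supernatant underwent TMT labelling and LC-MS/MS, and vsn-normalised intensities were expressed as fold change against the detergent-processed vehicle in each replicate.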

By UniProt entry, the sequences of proteins in these tests, tags left out. Where a name states a change or a piece, a line headed by the entry shows the natural chain unless it says otherwise.
UniProt P20674, whole entry: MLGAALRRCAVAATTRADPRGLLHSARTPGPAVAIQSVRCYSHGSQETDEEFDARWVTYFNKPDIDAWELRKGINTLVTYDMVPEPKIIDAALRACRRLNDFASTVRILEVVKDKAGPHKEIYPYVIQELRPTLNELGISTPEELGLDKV
UniProt Q99547: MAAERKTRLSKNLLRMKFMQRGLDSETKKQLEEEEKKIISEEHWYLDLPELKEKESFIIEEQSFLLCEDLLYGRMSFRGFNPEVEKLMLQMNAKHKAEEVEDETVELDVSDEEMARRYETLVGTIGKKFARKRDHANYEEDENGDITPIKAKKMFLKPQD
UniProt Q9BUR5: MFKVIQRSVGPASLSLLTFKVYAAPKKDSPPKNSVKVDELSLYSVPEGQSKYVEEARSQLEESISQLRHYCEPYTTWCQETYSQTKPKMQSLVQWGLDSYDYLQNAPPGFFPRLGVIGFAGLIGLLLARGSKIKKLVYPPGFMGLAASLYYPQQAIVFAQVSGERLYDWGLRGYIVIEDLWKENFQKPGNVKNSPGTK
UniProt O43598: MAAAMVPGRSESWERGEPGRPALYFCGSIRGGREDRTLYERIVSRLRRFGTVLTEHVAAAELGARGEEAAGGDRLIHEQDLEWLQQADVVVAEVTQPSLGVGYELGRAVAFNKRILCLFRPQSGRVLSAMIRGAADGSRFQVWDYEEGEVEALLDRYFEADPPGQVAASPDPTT
UniProt O14641: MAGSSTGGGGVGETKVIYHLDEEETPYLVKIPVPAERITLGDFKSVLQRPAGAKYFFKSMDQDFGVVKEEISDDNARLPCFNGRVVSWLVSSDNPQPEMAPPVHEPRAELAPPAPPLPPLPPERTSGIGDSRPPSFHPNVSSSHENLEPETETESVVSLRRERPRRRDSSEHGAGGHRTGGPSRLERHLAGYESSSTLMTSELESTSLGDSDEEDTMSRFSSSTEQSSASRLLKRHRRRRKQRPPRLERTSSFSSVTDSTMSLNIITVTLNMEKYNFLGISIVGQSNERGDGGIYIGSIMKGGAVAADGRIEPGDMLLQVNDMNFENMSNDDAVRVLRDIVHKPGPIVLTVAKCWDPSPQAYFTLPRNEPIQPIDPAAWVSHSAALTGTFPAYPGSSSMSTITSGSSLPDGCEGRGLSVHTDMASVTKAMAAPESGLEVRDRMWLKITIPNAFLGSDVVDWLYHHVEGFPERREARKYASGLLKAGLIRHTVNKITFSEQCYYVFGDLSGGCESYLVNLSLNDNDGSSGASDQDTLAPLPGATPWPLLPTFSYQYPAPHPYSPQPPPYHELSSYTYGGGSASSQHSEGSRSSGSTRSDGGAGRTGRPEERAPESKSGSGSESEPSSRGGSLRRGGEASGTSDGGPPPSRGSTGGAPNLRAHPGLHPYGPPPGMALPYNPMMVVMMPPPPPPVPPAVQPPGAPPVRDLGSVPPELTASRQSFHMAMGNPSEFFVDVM
UniProt O94788: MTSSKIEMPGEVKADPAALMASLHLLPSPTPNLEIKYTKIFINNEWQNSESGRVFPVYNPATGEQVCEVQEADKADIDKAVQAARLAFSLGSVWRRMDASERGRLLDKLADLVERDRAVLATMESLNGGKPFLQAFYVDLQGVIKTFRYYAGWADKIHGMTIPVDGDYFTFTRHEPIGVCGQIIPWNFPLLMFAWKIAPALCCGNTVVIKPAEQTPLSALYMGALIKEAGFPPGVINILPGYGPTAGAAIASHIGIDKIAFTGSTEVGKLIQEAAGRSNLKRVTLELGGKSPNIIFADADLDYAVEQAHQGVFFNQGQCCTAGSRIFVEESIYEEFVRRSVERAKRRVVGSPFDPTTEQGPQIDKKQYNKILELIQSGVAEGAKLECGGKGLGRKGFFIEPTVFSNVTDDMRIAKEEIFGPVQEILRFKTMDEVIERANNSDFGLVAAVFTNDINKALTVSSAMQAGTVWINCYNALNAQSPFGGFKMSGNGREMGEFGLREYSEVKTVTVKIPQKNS
UniProt P60842, whole entry: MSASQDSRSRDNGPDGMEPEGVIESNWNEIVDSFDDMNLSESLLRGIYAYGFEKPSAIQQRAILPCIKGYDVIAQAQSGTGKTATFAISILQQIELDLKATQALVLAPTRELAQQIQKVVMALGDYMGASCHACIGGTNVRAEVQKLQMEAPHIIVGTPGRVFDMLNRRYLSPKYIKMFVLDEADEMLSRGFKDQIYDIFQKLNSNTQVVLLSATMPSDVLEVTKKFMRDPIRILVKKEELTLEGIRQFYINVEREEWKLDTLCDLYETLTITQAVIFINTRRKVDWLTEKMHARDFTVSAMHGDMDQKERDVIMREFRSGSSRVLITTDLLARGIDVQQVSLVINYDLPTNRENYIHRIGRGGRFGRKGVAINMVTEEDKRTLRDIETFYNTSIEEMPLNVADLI
UniProt Q9H0E3: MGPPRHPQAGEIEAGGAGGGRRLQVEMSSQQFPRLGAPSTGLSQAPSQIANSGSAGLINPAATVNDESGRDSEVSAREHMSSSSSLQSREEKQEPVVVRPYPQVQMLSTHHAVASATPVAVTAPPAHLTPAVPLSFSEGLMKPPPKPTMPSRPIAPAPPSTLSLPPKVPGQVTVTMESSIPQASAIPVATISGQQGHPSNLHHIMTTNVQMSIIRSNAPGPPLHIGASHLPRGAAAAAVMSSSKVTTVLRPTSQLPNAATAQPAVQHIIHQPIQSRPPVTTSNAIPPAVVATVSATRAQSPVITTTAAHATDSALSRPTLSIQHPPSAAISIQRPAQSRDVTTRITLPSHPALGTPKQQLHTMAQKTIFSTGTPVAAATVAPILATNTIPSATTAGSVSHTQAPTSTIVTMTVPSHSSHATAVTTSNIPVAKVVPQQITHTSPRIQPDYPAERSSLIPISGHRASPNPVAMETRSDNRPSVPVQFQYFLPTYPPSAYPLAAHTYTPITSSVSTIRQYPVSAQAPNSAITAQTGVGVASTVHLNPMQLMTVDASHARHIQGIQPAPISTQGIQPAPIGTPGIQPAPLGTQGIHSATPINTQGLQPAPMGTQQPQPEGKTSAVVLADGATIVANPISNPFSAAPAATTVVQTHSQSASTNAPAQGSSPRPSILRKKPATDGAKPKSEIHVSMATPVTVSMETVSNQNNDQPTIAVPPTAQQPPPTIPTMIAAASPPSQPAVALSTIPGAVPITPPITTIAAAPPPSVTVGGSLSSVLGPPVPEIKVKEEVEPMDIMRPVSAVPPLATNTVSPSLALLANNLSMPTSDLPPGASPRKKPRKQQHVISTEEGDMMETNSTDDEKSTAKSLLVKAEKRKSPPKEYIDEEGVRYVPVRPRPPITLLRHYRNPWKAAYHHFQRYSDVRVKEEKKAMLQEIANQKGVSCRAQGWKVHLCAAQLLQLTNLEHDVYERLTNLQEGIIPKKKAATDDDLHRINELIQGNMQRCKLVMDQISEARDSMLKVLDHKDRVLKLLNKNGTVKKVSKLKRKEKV
UniProt Q9NVS9: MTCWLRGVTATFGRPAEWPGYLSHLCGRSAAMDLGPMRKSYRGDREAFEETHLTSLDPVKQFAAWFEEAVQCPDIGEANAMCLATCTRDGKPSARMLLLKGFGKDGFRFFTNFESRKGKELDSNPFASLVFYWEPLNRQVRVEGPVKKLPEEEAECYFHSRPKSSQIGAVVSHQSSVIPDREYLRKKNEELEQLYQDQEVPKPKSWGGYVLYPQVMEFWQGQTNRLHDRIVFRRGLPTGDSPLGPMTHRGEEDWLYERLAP
UniProt Q5VW38: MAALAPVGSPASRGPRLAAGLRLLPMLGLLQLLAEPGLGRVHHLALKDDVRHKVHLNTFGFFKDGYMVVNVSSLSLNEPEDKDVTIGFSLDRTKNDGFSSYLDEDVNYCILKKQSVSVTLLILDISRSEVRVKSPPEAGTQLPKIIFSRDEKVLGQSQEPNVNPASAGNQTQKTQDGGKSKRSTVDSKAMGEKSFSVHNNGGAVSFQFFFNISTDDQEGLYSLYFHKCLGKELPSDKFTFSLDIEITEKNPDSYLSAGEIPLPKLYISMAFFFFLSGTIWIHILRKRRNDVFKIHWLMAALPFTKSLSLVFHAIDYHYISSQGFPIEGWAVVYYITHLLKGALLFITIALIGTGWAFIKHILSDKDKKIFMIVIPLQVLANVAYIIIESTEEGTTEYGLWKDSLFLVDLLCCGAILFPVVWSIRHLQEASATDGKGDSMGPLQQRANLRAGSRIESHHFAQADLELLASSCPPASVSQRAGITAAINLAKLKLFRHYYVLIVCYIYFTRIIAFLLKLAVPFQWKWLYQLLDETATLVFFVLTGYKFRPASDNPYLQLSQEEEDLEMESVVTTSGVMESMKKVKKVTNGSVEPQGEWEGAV
UniProt Q9H9Q2: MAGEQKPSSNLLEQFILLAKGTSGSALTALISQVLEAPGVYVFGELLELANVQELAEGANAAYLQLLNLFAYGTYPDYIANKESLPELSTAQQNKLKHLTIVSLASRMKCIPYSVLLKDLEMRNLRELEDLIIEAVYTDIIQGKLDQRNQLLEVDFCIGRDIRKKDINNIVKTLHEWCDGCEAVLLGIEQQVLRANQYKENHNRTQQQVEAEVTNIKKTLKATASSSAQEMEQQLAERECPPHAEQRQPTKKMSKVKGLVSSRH
UniProt Q9BRQ6: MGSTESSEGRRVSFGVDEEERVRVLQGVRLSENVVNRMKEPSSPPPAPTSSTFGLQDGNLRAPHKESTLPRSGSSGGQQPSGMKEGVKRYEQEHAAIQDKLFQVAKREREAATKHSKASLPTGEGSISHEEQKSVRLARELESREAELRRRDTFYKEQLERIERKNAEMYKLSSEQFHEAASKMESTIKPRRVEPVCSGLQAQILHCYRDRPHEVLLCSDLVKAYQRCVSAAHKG
UniProt Q96MX0: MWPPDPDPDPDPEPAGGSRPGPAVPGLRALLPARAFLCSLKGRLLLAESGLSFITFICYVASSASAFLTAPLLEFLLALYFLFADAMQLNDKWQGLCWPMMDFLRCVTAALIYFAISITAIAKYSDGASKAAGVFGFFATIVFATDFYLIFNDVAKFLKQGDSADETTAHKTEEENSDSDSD
UniProt O95166, whole entry: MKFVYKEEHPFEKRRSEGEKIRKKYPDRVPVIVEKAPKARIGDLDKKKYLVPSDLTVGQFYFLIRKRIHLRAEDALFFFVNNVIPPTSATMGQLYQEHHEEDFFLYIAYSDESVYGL
UniProt Q8IXM2, whole entry, looked up: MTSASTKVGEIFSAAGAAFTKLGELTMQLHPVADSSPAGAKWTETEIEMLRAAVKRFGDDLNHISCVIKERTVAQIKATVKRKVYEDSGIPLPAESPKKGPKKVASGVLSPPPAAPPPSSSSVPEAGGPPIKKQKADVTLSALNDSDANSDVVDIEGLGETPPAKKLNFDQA
UniProt P50990: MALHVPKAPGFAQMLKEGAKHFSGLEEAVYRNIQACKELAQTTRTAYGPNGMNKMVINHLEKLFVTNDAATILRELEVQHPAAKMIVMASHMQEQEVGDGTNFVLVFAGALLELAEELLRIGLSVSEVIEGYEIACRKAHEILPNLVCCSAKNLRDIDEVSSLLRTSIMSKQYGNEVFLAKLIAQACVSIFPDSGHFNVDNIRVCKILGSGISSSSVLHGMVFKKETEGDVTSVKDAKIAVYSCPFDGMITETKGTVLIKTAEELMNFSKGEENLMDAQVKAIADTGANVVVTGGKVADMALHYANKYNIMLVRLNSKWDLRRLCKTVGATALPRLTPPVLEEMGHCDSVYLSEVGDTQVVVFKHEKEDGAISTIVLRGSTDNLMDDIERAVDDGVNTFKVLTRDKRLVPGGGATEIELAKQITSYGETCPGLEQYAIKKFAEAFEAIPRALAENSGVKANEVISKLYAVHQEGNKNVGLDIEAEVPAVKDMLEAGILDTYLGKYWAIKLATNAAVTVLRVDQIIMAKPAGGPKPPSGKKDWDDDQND
UniProt Q12982: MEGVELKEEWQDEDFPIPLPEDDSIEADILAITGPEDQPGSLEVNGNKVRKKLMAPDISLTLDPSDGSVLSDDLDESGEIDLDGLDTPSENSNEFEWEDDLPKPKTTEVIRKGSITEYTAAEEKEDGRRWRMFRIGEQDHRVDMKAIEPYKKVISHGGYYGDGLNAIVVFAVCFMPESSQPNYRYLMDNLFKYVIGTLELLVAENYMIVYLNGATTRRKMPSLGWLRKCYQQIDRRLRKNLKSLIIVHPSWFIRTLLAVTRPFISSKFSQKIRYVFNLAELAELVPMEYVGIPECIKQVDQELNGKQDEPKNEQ
UniProt P80404: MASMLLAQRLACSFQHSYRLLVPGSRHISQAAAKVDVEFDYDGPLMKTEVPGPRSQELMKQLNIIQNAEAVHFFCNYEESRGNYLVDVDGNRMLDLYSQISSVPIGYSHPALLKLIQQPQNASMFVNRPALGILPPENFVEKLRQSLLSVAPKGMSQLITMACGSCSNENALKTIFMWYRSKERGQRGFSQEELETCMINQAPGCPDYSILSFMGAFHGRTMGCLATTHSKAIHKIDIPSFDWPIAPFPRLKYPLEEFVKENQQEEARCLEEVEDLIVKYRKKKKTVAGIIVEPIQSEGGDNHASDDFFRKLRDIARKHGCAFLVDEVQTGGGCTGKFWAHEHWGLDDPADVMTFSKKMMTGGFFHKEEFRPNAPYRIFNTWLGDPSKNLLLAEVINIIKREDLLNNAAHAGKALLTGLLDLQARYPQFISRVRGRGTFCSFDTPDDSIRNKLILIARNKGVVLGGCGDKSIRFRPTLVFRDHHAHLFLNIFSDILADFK

| Target | NP40-soluble protein abundance (concentration: 0.1mM) | NP40-soluble protein abundance (concentration: 0.5mM) |
| --- | --- | --- |
| I3L4C2 and related entries (UniProt Q9UQB8) | 1.01 ± 0.011 | 1.012 ± 0.0079 |
| H3BNF9 and related entries (UniProt Q9Y2V0) | 1.01 ± 0.028 | 0.9746 ± 0.0062 |
| H3BNX8 and related entries (UniProt P20674) | 1.04 ± 0.029 | 1.05 ± 0.073 |
| I3L3K7 and related entries (UniProt Q12968) | 0.98 ± 0.011 | 1.02 ± 0.019 |
| J3QQJ0 and related entries (UniProt Q9UHR5) | 0.958 ± 0.013 | 0.978 ± 0.062 |
| H7C3D5 and related entries (UniProt Q8NC44) | 0.991 ± 0.044 | 0.989 ± 0.038 |
| H0YEH1 and related entries (UniProt Q13492) | 1.01 ± 0.024 | 1.02 ± 0.022 |
| H7BXD5 and related entries (UniProt P28676) | 1.04 ± 0.05 | 1.025 ± 0.0003 |
| H3BP20 and related entries (UniProt P06865) | 1.01 ± 0.064 | 0.999 ± 0.088 |
| H3BNT4 and related entries (UniProt Q99547) | 0.982 ± 0.01 | 0.983 ± 0.021 |
| H0YEL0 and related entries (UniProt O14893) | 0.976 ± 0.023 | 0.971 ± 0.032 |
| H7C1U8 and related entries (UniProt Q9BUR5) | 1.06 ± 0.025 | 1 ± 0.037 |
| J3KS22 and related entries (UniProt Q7Z4W1) | 1.01 ± 0.031 | 1.02 ± 0.048 |
| H0Y8X4 and related entries (UniProt O43598) | 1.03 ± 0.012 | 1.021 ± 0.005 |
| G3V5T9 and related entries (UniProt P24941) | 1.01 ± 0.0079 | 0.989 ± 0.037 |
| H0Y9X1 and related entries (UniProt Q96EY4) | 0.961 ± 0.011 | 0.966 ± 0.012 |
| H3BTA2 and related entries (UniProt P60510) | 0.979 ± 0.063 | 0.963 ± 0.1 |
| I3L2N2 and related entries (UniProt O14641) | 0.982 ± 0.043 | 0.999 ± 0.068 |
| H0YMG7 and related entries (UniProt O94788) | 1.03 ± 0.064 | 0.999 ± 0.062 |
| G5E9G0 and related entries (UniProt P39023) | 1.01 ± 0.046 | 0.987 ± 0.037 |
| UniProt G3V599 | 0.982 ± 0.011 | 0.986 ± 0.037 |
| H7BYJ3 and related entries (UniProt O14578) | 0.99 ± 0.017 | 0.975 ± 0.027 |
| J3QS69 and related entries (UniProt P60842) | 1.05 ± 0.046 | 1.06 ± 0.069 |

Some values from the list.
NP40-soluble protein abundance (concentration: 0.5mM), H7C3D5 and related entries (UniProt Q8NC44) is entered as 0.989 ± 0.038
NP40-soluble protein abundance (concentration: 0.5mM), J3QQJ0 and related entries (UniProt Q9UHR5) is entered as 0.978 ± 0.062
NP40-soluble protein abundance (concentration: 0.5mM), J3QS69 and related entries (UniProt P60842) is entered as 1.06 ± 0.069
NP40-soluble protein abundance (concentration: 0.5mM), G3V5T9 and related entries (UniProt P24941) is entered as 0.989 ± 0.037

The list goes on:

| Target | NP40-soluble protein abundance (concentration: 0.1mM) | NP40-soluble protein abundance (concentration: 0.5mM) |
| --- | --- | --- |
| J3KS51 and related entries (UniProt O75376) | 0.996 ± 0.032 | 0.998 ± 0.043 |
| H7C4N2 and related entries (UniProt P13797) | 0.999 ± 0.052 | 0.98 ± 0.034 |
| G3V5N8 and related entries (UniProt Q9HBF4) | 0.973 ± 0.034 | 0.963 ± 0.031 |
| G3XAJ6 and related entries (UniProt Q14699) | 0.976 ± 0.029 | 0.959 ± 0.016 |
| G5E9V5 and related entries (UniProt P82650) | 1.04 ± 0.046 | 0.984 ± 0.072 |
| H7BXF5 and related entries (UniProt Q9H0E3) | 1.01 ± 0.013 | 1.02 ± 0.044 |
| H7BXF4 and related entries (UniProt Q9NXE4) | 1.03 ± 0.041 | 0.975 ± 0.11 |
| J3QQV6 and related entries (UniProt Q9NVS9) | 0.979 ± 0.037 | 0.984 ± 0.012 |
| I3L4X7 and related entries (UniProt Q13227) | 0.992 ± 0.054 | 1.05 ± 0.14 |
| G5E994 and related entries (UniProt Q5VW38) | 1.01 ± 0.021 | 1.004 ± 0.0084 |
| J3KQ34 and related entries (UniProt Q9H9Q2) | 0.972 ± 0.058 | 0.984 ± 0.088 |
| I3L0L6 and related entries (UniProt Q9H6Y7) | 1.1 ± 0.1 | 1.05 ± 0.053 |
| H7C127 and related entries (UniProt Q9H0E9) | 1.01 ± 0.026 | 1.03 ± 0.06 |
| H0YAV1 and related entries (UniProt Q7LG56) | 0.99 ± 0.042 | 0.96 ± 0.011 |
| J3QS41 and related entries (UniProt P42694) | 0.99 ± 0.049 | 0.908 ± 0.036 |
| J3KMZ9 and related entries (UniProt P01130) | 0.962 ± 0.036 | 0.966 ± 0.019 |
| I3L448 and related entries (UniProt Q5TC12) | 1 ± 0.017 | 0.9801 ± 0.0085 |
| H3BSL4 and related entries (UniProt Q66K89) | 0.9901 ± 0.0063 | 0.98 ± 0.055 |
| G5E9C8 and related entries (UniProt Q07889) | 1.002 ± 0.0037 | 0.998 ± 0.029 |
| J3KTD6 and related entries (UniProt Q96GD4) | 0.994 ± 0.018 | 1 ± 0.016 |
| J3QTA6 and related entries (UniProt Q9BRQ6) | 1.01 ± 0.03 | 1 ± 0.06 |
| I3L4I4 and related entries (UniProt O75674) | 1.01 ± 0.03 | 1.01 ± 0.04 |
| H0YKD8 and related entries (UniProt P46779) | 1.05 ± 0.03 | 1.05 ± 0.029 |

| Target | NP40-soluble protein abundance (concentration: 0.1mM) | NP40-soluble protein abundance (concentration: 0.5mM) |
| --- | --- | --- |
| I3L3C2 and related entries (UniProt Q96MX0) | 0.958 ± 0.026 | 0.973 ± 0.05 |
| H0YGR4 and related entries (UniProt Q9Y3B8) | 0.963 ± 0.013 | 1.03 ± 0.05 |
| H0YJF3 and related entries (UniProt Q13686) | 0.9856 ± 0.0083 | 1.012 ± 0.0084 |
| H3BP71 and related entries (UniProt O75150) | 1 ± 0.032 | 1.04 ± 0.059 |
| H6UMI1 and related entries (UniProt O95166) | 1 ± 0.045 | 1.043 ± 0.0052 |
| J3KNN7 and related entries (UniProt Q7Z569) | 1.01 ± 0.021 | 0.979 ± 0.014 |
| I3L3Q7 and related entries (UniProt Q07021) | 0.731 ± 0.26 | 0.93 ± 0.17 |
| H7C285 and related entries (UniProt O95858) | 0.975 ± 0.012 | 0.978 ± 0.033 |
| H7C561 and related entries (UniProt Q15637) | 0.9705 ± 0.0034 | 1.01 ± 0.025 |
| J3KN10 and related entries (UniProt P42356) | 1.04 ± 0.061 | 1.03 ± 0.029 |
| H0YIS7 and related entries (UniProt Q8IXM2+H0YIS7) | 0.969 ± 0.018 | 1 ± 0.057 |
| H7C4C8 and related entries (UniProt P50990) | 1.01 ± 0.02 | 1 ± 0.025 |
| H3BUV4 and related entries (UniProt Q9NWW5) | 1.07 ± 0.042 | 1.08 ± 0.057 |
| J3KPH8 and related entries (UniProt Q8WUI4) | 1.01 ± 0.047 | 0.968 ± 0.043 |
| H0YEM9 and related entries (UniProt Q8NCP5) | 1.021 ± 0.0035 | 1.015 ± 0.0089 |
| J3KN59 and related entries (UniProt Q12982) | 1.01 ± 0.062 | 1.08 ± 0.075 |
| G3XAN4 and related entries (UniProt Q15629) | 0.973 ± 0.022 | 1 ± 0.017 |
| H3BRN4 and related entries (UniProt P80404) | 1 ± 0.012 | 0.968 ± 0.015 |
| H3BRL0 and related entries (UniProt Q9BXC9) | 1.001 ± 0.0068 | 0.978 ± 0.05 |
| H3BLT9 and related entries (UniProt Q7RTR2) | 0.952 ± 0.034 | 0.977 ± 0.032 |
| J3QR77 and related entries (UniProt Q15762) | 0.9857 ± 0.0085 | 1.01 ± 0.049 |
